# ± gives the standard deviation of the averaged measurements. This is a selection; strong and weak results do not stand in their true shares. Most values lie at the level of the controls, where differences are scatter.
# Amino acid sequences for entries named in this document (tags omitted). A change or cut given only in a name is not applied to a line headed by its entry.
# UniProt Q8IY47: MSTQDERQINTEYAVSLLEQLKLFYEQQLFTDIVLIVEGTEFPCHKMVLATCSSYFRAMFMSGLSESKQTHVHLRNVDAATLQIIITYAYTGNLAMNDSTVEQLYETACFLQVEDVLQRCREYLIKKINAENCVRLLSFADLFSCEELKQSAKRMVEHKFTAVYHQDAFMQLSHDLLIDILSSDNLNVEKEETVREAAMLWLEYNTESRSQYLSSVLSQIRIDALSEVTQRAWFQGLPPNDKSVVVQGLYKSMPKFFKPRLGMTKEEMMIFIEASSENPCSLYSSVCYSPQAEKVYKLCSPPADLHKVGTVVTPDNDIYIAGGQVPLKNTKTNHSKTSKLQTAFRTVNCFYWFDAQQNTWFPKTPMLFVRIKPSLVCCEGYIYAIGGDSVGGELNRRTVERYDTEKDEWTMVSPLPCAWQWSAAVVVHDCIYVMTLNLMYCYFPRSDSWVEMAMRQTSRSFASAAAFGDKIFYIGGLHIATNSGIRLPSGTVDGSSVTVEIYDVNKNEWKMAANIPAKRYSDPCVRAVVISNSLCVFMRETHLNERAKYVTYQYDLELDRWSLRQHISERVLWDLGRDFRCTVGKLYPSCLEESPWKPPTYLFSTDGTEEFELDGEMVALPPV
# UniProt Q8TAD8: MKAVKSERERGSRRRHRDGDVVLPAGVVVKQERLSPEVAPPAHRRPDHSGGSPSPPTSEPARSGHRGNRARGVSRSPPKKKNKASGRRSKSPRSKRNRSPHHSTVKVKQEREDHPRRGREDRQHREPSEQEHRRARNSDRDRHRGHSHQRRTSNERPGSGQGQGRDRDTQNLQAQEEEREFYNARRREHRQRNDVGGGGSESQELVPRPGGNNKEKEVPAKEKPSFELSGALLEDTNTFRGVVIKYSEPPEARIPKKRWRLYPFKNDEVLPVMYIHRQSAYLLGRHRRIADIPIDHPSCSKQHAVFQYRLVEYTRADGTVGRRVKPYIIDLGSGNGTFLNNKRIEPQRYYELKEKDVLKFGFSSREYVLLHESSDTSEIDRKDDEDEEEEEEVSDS
# UniProt Q8IY18: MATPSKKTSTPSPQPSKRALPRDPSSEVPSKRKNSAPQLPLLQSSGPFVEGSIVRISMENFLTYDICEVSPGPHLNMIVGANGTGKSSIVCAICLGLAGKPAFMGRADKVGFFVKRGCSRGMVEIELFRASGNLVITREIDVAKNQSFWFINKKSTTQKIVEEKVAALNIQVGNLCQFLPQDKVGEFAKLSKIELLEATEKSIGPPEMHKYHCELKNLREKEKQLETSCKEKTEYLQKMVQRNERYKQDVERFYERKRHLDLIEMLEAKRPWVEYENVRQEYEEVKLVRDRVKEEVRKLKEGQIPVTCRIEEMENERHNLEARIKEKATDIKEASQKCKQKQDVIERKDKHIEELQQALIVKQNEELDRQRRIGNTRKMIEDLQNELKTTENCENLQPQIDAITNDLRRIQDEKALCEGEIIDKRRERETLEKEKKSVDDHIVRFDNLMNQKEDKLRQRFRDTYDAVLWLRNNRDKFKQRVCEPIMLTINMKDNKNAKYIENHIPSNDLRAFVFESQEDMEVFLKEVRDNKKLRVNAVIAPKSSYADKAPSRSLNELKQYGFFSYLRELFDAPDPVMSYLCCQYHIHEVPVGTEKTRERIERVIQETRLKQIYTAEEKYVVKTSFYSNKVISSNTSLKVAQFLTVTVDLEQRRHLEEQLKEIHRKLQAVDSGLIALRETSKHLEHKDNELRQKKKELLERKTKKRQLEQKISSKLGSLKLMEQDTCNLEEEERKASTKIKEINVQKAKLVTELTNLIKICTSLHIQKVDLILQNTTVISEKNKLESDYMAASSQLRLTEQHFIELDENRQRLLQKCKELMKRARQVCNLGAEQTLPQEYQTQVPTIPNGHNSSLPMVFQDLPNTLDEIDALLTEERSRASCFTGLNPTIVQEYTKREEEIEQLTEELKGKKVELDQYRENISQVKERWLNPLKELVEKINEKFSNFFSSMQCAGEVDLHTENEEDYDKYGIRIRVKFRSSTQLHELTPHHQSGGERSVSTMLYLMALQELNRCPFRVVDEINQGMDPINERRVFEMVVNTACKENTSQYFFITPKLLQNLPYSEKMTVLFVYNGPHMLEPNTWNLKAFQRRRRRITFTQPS
# UniProt Q8IYD1, whole entry: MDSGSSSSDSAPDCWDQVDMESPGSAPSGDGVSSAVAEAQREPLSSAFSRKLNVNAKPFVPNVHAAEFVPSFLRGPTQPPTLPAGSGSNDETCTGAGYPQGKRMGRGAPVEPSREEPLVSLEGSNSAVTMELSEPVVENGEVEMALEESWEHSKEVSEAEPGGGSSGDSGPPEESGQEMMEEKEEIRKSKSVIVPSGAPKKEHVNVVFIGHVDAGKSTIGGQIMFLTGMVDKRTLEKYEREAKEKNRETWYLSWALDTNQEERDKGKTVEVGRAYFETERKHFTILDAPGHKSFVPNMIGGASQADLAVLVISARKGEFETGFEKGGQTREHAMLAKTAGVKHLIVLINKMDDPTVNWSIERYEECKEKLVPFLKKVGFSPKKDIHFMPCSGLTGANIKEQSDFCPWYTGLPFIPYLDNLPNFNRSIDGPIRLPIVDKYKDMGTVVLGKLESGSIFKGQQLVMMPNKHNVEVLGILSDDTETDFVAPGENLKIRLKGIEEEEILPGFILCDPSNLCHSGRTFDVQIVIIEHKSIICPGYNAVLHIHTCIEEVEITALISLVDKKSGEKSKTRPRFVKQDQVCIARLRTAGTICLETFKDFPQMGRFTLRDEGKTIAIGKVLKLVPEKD
# UniProt Q8NG08: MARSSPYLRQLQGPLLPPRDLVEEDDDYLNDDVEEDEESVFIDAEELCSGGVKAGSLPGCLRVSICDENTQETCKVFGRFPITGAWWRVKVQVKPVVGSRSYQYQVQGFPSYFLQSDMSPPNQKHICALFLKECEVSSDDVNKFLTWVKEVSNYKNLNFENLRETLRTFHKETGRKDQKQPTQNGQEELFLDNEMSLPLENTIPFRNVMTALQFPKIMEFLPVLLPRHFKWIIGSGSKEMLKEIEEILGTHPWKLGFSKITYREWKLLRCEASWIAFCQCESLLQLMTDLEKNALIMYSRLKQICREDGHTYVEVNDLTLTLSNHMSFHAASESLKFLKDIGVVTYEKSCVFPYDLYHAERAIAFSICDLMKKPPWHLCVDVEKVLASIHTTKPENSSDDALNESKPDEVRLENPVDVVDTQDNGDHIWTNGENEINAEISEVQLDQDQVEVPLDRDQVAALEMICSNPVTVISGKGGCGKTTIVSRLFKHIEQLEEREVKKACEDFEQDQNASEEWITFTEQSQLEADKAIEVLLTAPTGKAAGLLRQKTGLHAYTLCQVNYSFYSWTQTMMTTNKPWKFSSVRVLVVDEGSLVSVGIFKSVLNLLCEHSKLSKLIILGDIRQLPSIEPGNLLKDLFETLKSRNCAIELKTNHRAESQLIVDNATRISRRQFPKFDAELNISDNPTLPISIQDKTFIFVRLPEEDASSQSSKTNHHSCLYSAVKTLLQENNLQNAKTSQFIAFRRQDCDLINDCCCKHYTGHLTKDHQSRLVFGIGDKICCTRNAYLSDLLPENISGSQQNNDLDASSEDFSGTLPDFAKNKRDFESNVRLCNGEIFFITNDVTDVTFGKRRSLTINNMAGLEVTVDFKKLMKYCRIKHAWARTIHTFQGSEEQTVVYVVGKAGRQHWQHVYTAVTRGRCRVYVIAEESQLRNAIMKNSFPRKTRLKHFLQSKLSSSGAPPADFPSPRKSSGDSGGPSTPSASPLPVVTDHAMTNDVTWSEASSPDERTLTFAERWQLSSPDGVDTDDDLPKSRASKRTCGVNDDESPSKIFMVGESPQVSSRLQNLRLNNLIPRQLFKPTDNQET
# UniProt Q8N6R0: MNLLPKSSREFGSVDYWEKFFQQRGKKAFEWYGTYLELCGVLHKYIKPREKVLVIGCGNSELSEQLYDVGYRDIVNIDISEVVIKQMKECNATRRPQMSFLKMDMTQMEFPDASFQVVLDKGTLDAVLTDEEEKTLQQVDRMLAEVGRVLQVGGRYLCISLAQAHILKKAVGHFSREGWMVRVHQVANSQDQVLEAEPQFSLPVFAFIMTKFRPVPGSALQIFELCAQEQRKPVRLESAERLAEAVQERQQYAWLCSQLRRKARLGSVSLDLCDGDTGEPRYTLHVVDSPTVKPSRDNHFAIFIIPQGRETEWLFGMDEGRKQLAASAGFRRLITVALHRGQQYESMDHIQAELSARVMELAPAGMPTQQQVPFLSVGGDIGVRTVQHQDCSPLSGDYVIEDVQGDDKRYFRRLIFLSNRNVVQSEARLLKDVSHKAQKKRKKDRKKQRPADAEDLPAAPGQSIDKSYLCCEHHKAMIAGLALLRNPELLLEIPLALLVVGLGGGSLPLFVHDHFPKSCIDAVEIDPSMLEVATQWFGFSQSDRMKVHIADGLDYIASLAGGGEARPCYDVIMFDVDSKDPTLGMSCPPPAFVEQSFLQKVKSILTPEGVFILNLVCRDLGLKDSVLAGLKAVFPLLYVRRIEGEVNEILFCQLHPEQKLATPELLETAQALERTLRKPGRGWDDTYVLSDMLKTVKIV
# UniProt Q8IWE4: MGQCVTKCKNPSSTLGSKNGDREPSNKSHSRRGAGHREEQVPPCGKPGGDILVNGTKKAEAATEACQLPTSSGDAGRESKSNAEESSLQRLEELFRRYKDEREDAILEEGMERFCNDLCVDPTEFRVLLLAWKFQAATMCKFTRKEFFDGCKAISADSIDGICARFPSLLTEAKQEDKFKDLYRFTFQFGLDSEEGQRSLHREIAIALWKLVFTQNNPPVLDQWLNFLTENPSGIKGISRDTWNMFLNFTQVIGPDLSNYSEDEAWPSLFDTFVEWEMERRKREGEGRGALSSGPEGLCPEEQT
# UniProt Q8N1K5: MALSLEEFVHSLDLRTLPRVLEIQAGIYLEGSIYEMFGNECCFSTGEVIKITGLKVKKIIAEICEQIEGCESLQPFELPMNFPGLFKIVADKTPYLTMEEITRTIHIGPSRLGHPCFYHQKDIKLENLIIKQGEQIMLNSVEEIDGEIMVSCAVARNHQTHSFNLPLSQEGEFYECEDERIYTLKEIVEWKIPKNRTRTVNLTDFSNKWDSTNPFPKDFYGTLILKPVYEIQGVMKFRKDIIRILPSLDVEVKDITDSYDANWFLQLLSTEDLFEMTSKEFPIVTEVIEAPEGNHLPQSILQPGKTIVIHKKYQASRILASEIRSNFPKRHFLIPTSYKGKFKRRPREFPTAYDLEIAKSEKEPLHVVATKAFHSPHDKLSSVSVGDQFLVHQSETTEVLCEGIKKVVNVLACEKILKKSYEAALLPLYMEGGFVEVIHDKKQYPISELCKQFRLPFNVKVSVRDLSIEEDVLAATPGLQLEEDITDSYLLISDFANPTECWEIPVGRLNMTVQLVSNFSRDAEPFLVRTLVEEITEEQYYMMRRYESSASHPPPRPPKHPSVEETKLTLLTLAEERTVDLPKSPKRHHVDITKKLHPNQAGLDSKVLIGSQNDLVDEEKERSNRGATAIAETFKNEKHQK
# UniProt Q8N3X1: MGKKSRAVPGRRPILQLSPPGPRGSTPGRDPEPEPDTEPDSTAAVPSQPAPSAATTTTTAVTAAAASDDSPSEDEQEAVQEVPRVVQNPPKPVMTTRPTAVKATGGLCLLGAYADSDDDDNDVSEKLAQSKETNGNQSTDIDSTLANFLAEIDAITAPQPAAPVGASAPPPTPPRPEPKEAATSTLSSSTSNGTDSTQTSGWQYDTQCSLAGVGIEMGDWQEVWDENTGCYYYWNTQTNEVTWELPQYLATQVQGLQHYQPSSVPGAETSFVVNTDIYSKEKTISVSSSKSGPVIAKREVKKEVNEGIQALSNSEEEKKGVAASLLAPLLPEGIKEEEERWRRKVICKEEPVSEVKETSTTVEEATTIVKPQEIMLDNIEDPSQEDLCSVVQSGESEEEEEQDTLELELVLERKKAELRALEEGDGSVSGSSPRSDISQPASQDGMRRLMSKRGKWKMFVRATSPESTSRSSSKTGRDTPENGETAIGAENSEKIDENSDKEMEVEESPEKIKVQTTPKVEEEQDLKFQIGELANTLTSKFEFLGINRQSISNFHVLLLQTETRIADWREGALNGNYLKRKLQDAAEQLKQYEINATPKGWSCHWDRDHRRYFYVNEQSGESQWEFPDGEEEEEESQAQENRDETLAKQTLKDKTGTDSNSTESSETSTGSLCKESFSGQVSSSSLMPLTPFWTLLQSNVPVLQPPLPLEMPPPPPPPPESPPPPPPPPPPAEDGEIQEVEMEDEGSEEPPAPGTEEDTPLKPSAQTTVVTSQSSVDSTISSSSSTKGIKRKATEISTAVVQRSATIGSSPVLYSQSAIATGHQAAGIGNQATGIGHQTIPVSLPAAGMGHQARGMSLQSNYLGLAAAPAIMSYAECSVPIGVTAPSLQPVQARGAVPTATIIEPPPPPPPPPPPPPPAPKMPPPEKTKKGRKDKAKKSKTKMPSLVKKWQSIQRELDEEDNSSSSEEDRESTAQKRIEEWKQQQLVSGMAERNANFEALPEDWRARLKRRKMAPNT
# Compound: Nc1ncnc2c1ncn2[C@@H]1O[C@H](COP(=O)(O)OP(=O)(O)OP(=O)(O)O)[C@@H](O)[C@H]1O [adenosine triphosphate]
# Assay: NP40-soluble protein abundance relative to vehicle (solubility fold change) (ratio); higher = more soluble protein in presence of ATP
# Summary of the method: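 Jurkat crude lysate prepared with a Dounce homogeniser was treated at eight concentrations spanning 0.1 to 10 mM, 10 min at room temperature then 3 min at 37 °C. Solubilisation with 0.8% NP40 and benzonase and ultracentrifugation preceded TMT labelling of the supernatant for LC-MS/MS. Fold change against the detergent-processed vehicle was determined per replicate from vsn-normalised intensities, across three independent experiments.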
Target,NP40-soluble protein abundance (concentration: 0.1mM),NP40-soluble protein abundance (concentration: 0.5mM),NP40-soluble protein abundance (concentration: 1mM),NP40-soluble protein abundance (concentration: 2mM),NP40-soluble protein abundance (concentration: 4mM),NP40-soluble protein abundance (concentration: 6mM),NP40-soluble protein abundance (concentration: 8mM),NP40-soluble protein abundance (concentration: 10mM)
KBTBD2 (UniProt Q8IY47),1.07 ± 0.16,1.13 ± 0.069,1.14 ± 0.13,1.11 ± 0.027,1.15 ± 0.07,1.05 ± 0.044,1.16 ± 0.13,1.08 ± 0.026
SNIP1 (UniProt Q8TAD8),1.11 ± 0.048,1.13 ± 0.043,1.18 ± 0.044,1.22 ± 0.055,1.44 ± 0.085,1.57 ± 0.098,1.67 ± 0.11,1.8 ± 0.1
UniProt Q8NCA5 and related entries,0.992 ± 0.068,1.01 ± 0.1,1.01 ± 0.056,1.14 ± 0.15,1.18 ± 0.12,1.26 ± 0.14,1.41 ± 0.14,1.64 ± 0.23
SMC5 (UniProt Q8IY18),1.04 ± 0.031,1.05 ± 0.027,1.02 ± 0.026,1.02 ± 0.013,1.02 ± 0.02,1.04 ± 0.02,1.04 ± 0.016,1.04 ± 0.017
GSPT2 (UniProt Q8IYD1),1.03 ± 0.02,1.04 ± 0.08,1.035 ± 0.0061,1.023 ± 0.0095,1 ± 0.016,1.01 ± 0.02,0.991 ± 0.042,0.987 ± 0.037
UniProt Q8NG08 and related entries,1.03 ± 0.11,1.02 ± 0.1,1.05 ± 0.18,1.06 ± 0.12,1.09 ± 0.16,0.955 ± 0.13,0.984 ± 0.066,1.01 ± 0.1
UniProt Q8N6R0,1.05 ± 0.067,1.03 ± 0.06,1.04 ± 0.096,1 ± 0.081,1.05 ± 0.072,0.979 ± 0.085,1.05 ± 0.075,1.01 ± 0.053
DCUN1D3 (UniProt Q8IWE4),1.01 ± 0.14,0.911 ± 0.069,0.923 ± 0.038,0.949 ± 0.049,0.998 ± 0.035,0.92 ± 0.034,0.931 ± 0.039,0.866 ± 0.11
UniProt Q8N1K5 and related entries,1.06 ± 0.1,1.05 ± 0.098,–,–,–,–,–,–
PDCD7 (UniProt Q8N8D1),1.02 ± 0.12,1.15 ± 0.15,1.22 ± 0.14,1.24 ± 0.058,1.48 ± 0.099,1.48 ± 0.024,1.49 ± 0.13,1.76 ± 0.16
UniProt Q8N3X1 and related entries,0.903 ± 0.017,0.952 ± 0.0036,1.01 ± 0.026,1.11 ± 0.013,1.29 ± 0.042,1.57 ± 0.027,1.72 ± 0.08,1.9 ± 0.082
